The list shows a part of the results.

By UniProt entry, the sequences of proteins in these tests, tags left out. Where a name states a change or a piece, a line headed by the entry shows the natural chain unless it says otherwise.
UniProt Q9BYB4: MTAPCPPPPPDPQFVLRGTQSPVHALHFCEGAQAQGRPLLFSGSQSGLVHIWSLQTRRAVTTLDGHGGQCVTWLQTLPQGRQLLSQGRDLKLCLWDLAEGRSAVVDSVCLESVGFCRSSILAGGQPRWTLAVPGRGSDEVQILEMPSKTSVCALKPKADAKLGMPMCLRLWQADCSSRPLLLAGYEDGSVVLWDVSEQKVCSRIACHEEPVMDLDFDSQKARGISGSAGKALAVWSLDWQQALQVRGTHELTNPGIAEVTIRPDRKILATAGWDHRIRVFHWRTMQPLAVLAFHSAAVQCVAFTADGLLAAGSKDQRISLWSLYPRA
UniProt Q9HC38: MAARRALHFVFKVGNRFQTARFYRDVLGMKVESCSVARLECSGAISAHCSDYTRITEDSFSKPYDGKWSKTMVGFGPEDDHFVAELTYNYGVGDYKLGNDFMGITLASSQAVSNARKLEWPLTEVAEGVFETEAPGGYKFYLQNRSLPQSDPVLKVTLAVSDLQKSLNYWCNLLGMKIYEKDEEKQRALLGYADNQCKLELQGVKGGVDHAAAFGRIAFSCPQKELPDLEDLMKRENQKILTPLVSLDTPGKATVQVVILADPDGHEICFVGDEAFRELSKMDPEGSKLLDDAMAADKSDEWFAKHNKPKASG
UniProt Q92896: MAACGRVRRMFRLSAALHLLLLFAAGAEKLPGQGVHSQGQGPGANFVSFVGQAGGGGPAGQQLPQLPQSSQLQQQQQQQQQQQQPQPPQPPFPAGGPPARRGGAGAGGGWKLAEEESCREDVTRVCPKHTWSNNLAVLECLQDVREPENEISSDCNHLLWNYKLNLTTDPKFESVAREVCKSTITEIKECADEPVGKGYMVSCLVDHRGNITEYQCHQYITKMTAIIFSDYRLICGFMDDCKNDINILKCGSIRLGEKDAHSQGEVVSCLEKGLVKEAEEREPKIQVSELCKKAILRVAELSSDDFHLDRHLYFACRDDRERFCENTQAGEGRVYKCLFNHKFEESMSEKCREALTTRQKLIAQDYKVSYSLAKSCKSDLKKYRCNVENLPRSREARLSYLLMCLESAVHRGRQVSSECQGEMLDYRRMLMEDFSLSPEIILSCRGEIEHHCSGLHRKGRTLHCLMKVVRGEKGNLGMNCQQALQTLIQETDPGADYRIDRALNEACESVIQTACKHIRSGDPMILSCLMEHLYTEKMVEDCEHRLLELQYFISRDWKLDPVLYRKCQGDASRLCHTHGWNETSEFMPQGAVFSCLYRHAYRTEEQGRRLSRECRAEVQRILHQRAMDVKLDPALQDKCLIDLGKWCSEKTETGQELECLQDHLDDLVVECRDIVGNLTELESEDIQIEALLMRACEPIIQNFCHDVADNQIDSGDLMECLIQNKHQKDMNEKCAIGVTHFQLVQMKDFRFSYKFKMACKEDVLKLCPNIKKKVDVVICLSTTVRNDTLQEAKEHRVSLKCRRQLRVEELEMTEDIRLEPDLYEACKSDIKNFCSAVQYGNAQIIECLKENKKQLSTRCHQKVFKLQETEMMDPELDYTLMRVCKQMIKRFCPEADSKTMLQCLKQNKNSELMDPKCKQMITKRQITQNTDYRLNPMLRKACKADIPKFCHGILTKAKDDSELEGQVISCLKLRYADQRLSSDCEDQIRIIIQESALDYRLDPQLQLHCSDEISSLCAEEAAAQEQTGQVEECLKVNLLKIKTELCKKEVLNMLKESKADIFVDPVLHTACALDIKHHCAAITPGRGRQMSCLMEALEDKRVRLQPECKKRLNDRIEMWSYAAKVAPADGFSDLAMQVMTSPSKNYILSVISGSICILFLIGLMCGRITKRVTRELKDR
UniProt Q9BRX5: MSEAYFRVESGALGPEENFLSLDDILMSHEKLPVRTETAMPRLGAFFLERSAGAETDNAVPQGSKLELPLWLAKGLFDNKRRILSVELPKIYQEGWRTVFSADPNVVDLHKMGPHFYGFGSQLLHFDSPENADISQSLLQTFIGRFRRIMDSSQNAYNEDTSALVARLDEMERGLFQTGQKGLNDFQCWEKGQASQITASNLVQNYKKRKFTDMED
UniProt Q9Y223: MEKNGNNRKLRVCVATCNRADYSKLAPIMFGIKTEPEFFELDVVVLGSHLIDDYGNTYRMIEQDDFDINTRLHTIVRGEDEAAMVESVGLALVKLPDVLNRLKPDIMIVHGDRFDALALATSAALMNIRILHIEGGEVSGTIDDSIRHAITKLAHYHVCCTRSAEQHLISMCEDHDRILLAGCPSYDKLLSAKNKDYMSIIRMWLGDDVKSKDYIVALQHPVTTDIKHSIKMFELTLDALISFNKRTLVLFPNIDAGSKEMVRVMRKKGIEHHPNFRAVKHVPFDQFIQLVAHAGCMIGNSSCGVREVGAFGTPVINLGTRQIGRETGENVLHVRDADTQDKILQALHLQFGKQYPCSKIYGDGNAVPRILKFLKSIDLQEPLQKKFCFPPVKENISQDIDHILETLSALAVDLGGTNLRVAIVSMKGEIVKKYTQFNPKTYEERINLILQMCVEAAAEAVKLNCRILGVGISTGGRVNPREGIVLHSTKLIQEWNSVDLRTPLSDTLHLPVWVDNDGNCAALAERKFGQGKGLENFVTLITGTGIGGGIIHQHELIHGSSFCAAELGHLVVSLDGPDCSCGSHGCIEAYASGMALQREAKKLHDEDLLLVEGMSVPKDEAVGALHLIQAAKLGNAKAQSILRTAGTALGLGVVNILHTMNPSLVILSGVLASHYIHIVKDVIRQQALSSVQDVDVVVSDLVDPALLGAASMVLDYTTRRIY
UniProt O75496: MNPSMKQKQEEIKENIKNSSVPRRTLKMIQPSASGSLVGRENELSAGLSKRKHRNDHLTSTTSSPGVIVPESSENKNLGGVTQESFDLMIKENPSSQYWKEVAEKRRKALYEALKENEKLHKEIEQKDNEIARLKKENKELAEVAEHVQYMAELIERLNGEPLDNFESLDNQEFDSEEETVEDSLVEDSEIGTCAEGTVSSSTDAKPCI
UniProt Q9H9Y4: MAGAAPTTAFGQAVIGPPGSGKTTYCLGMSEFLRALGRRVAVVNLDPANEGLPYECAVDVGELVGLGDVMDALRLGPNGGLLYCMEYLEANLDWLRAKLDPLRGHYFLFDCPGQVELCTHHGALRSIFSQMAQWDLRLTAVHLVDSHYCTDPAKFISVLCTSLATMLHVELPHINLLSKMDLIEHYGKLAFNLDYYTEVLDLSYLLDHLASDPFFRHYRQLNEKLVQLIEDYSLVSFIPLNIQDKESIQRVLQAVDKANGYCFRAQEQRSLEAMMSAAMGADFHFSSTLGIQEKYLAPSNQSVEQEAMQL
UniProt Q96EK6: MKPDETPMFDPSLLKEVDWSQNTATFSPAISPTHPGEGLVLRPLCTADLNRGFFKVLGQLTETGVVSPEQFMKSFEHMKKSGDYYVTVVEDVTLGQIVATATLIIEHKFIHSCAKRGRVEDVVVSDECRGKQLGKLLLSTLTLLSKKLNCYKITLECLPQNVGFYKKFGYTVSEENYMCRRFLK
UniProt Q14749: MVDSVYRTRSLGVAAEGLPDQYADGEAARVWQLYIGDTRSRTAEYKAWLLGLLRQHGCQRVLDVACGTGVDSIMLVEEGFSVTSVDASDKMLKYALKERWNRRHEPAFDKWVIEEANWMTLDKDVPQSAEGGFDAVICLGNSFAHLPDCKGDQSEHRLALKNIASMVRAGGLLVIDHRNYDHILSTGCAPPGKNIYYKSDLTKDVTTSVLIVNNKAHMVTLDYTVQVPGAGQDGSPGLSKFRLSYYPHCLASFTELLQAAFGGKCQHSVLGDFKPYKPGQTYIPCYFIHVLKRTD
UniProt O60547: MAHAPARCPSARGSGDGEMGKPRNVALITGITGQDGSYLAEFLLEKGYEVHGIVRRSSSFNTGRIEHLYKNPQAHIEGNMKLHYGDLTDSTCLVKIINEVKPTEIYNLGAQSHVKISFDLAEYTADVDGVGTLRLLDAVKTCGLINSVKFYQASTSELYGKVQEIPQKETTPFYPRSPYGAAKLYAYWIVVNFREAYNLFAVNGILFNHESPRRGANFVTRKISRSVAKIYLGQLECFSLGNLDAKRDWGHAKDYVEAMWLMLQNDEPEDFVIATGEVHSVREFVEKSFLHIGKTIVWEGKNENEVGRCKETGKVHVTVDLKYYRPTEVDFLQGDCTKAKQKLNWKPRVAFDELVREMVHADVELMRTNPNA
UniProt Q96IJ6: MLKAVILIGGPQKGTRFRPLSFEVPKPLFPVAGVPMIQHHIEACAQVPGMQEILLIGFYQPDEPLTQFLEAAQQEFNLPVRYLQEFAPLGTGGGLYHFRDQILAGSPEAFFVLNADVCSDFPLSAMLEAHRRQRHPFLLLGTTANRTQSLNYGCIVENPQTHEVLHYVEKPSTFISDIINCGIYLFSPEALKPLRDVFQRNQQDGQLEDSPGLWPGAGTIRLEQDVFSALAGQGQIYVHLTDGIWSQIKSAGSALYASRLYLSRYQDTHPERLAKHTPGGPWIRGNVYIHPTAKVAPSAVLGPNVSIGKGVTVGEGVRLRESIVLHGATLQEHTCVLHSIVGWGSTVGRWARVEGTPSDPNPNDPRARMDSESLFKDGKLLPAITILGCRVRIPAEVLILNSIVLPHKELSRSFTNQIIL
UniProt Q9HAV7: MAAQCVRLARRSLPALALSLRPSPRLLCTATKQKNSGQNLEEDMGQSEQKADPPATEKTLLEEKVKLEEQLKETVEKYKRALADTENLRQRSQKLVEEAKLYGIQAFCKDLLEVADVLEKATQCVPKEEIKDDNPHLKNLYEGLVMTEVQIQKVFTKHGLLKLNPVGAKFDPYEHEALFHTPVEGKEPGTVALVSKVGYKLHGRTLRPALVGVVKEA
UniProt Q03113, whole entry, looked up: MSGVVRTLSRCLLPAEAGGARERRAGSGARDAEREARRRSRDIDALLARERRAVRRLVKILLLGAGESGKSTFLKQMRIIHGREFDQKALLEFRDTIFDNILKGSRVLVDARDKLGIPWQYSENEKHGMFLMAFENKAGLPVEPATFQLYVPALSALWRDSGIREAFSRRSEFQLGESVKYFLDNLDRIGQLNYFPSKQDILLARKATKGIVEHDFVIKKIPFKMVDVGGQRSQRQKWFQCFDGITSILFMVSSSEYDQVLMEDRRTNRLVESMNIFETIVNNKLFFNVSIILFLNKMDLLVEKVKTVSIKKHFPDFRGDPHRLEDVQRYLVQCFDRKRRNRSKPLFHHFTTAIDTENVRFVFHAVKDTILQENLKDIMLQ
UniProt Q5VW38: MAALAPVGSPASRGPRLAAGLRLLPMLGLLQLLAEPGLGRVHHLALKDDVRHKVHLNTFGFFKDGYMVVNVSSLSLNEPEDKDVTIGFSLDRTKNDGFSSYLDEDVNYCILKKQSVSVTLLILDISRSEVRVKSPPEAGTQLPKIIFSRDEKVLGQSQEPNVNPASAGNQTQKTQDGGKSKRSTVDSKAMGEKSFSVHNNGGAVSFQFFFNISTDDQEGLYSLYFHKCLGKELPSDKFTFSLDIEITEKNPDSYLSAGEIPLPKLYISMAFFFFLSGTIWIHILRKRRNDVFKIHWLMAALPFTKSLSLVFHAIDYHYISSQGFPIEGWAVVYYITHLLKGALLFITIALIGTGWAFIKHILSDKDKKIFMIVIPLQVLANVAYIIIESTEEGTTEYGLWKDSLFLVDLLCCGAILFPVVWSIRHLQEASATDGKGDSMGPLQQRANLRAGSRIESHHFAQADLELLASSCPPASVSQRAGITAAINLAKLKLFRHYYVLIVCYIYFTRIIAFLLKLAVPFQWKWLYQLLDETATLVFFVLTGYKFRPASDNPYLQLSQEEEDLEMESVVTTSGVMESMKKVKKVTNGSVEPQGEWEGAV
UniProt P46926: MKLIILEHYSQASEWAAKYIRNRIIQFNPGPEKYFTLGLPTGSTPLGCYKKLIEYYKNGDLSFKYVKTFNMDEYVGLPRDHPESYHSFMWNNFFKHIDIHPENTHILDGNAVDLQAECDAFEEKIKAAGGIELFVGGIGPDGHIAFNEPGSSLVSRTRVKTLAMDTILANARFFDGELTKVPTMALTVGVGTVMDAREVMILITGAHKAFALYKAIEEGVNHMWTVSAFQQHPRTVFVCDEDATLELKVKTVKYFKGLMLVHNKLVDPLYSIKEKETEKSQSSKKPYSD
UniProt Q04760: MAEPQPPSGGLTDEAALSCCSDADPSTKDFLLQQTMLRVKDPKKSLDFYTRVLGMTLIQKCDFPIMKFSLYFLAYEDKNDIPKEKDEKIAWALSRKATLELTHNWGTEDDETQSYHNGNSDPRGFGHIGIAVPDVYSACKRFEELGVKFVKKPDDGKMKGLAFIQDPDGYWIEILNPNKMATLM
UniProt Q7Z5G4, whole entry, looked up: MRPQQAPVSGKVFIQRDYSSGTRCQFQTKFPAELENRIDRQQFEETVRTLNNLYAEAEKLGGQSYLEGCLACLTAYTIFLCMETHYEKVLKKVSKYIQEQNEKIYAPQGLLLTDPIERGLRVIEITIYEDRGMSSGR
UniProt O14653: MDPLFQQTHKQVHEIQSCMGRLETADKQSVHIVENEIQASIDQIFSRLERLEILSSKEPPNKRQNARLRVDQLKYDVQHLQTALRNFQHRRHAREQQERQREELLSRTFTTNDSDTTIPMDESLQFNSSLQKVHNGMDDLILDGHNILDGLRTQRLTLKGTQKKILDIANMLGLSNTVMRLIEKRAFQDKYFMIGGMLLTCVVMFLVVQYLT

Compound in the first test: COC(=O)N[C@@H](C)CNc1nccc(-c2cn(C(C)C)nc2-c2cc(Cl)cc(NS(C)(=O)=O)c2F)n1 [encorafenib]
Briefly: log2 fold change, soluble protein after heating vs DMSO (PISA); higher = thermal stabilisation; K562 cells, 10 uM, 30 min; active = over 0.2 and 3.5 SD of the protein, either way, in both replicates (recomputed). In outline:
(§1)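 Values are thermal stability changes relative to control samples and are taken from duplicates. They are stated as log2 fold changes. Before quantification by TMTpro 16plex LC-MS/MS with equalised channel sums, K562 cells at 2×10^6 cells/mL were treated with 10 μM compound for 30 min, heated in aliquots for 3 min across 48°C-58°C, pooled, extracted in PBS with 0.5% NP-40 at 4°C, and centrifuged at 21,000xg for 90 min to give the soluble supernatant.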
Consider GNB1L (UniProt Q9BYB4), for which the log2 fold change was inactive: -0.037. Still for that read-out and setting: in the case of GLOD4 isoform 2 (UniProt Q9HC38) it was inactive: 0.008. On the same count and under the same terms, under GPATCH11 (UniProt Q8N954) stands inactive: 0.075; under GLG1 isoform 2 (UniProt Q92896), inactive: -0.015. For the target GPATCH1 (UniProt Q9BRR8), the log2 fold change is inactive: -0.198. On the same count and under the same terms, in the case of GINS3 (UniProt Q9BRX5) it was inactive: -0.001. The same measure, in the same setting: under GNE isoform 2 (UniProt Q9Y223) stands inactive: 0.01; under GPRIN1 (UniProt Q7Z2K8), inactive: -0.018. Still for that read-out and setting: in the case of GOT1 (UniProt P17174) it was inactive: -0.009; in that of GPBP1 isoform 2 (UniProt Q86WP2), inactive: -0.14. Take GPS1 isoform 7 (UniProt Q13098): the log2 fold change is inactive: -0.002.

In the case of GMNN (UniProt O75496), the log2 fold change is inactive: -0.021. On the same count and under the same terms, in the case of GPD2 (UniProt P43304) it was inactive: -0.02; in that of GPN2 (UniProt Q9H9Y4), inactive: -0.049; in that of GPAT3 (UniProt Q53EU6), inactive: -0.066.

Compound in another test: COC(=O)[C@H](CCSC)NC(=O)C1=C(C=C(C=C1)NC[C@H](CS)N)C2=CC=CC=C2
Described as above. In short, it runs like this:
as §1
For GNA13 (UniProt Q14344), the log2 fold change is inactive: -0.046. Still for that read-out and setting: under GLB1L2 (UniProt Q8IW92) stands inactive: 0.002; under GK (UniProt P32189), inactive: 0.014; under GPHN isoform 2 (UniProt Q9NQX3), inactive: -0.007. Take GNPNAT1 (UniProt Q96EK6): the log2 fold change is inactive: 0.051. Same read-out and setting: under GMPR (UniProt P36959) stands inactive: 0.011; under GNMT (UniProt Q14749), inactive: 0.231. Same read-out and setting: in the case of GMDS (UniProt O60547) it was inactive: -0.008. Same read-out and setting: under GNPDA2 (UniProt Q8TDQ7) stands inactive: 0.057; under GPBP1L1 (UniProt Q9HC44), inactive: 0.04; under GM2A (UniProt P17900), inactive: 0.094. Take GMPPA (UniProt Q96IJ6): the log2 fold change is inactive: -0.018. As for GOLGA5 (UniProt Q8TBA6), the log2 fold change is inactive: 0.01. The same measure, in the same setting: under GRIPAP1 (UniProt Q4V328) stands inactive: 0.029; under GRPEL1 (UniProt Q9HAV7), inactive: 0. For GOT2 (UniProt P00505), the log2 fold change is inactive: 0.041.

With GNA12 (UniProt Q03113), the log2 fold change was inactive: 0.045.

In the case of GPR107 (UniProt Q5VW38), the log2 fold change was inactive: 0.035. On the same count and under the same terms, in the case of GNPDA1 (UniProt P46926) it was inactive: 0.002; in that of GLO1 (UniProt Q04760), inactive: 0.011.

On to GOSR1 (UniProt O95249), for which the log2 fold change was inactive: 0.094. On the same count and under the same terms, in the case of GOLGA7 (UniProt Q7Z5G4) it was inactive: -0.046; in that of GOSR2 isoform 2 (UniProt O14653), inactive: 0.034; in that of GNB1L (UniProt Q9BYB4), inactive: 0.033.

With GLOD4 isoform 2 (UniProt Q9HC38), the log2 fold change was inactive: 0. On to GPATCH11 (UniProt Q8N954), for which the log2 fold change was inactive: 0.023. For GLG1 isoform 2 (UniProt Q92896), the log2 fold change is inactive: 0.028. The same measure, in the same setting: under GPATCH1 (UniProt Q9BRR8) stands inactive: -0.006; under GINS3 (UniProt Q9BRX5), inactive: 0.003; under GNE isoform 2 (UniProt Q9Y223), inactive: -0.024. Still for that read-out and setting: in the case of GPRIN1 (UniProt Q7Z2K8) it was inactive: 0.019; in that of GOT1 (UniProt P17174), inactive: 0.01. Take GPBP1 isoform 2 (UniProt Q86WP2): the log2 fold change is inactive: 0.145. Same read-out and setting: in the case of GPS1 isoform 7 (UniProt Q13098) it was inactive: 0.052; in that of GMNN (UniProt O75496), inactive: 0.03. Still for that read-out and setting: under GPD2 (UniProt P43304) stands inactive: 0.043; under GPN2 (UniProt Q9H9Y4), inactive: -0.055. Same read-out and setting: under GPAT3 (UniProt Q53EU6) stands inactive: -0.039.
